Results deposited as PubChem BioAssay AID686937 (Drosophila RNAi Screening Center, 2013)

- Aim: 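Knock-downs that reduce output of a secreted reporter enzyme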 (primary screen)
- Cell system: Drosophila S2 cells expressing secreted horseradish peroxidase
- Reagents: long dsRNA against Drosophila genes
- Time to read-out: about 5.5 days (5 days dsRNA, then 12 h reporter induction)
- Conditions: reporter expression induced after 5 days of dsRNA, read 12 h later; inducer not stated
- Measured: 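After 5 days of dsRNA and 12 h of reporter induction, medium peroxidase read by chemiluminescence and scored as per-plate z-score; higher values mean more reporter released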
- Direction: z-score: higher = more reporter secreted into medium
The screen tested about 23,000 reagents; shown is an unselected part of those with a known target gene and a result. 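Reduced-secretion tags in replicate 1 do not always agree with the z-scores; no criterion for assigning the tags was given.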 Names joined by + are all predicted targets of the reagent. Not all columns of the deposit are shown. Not given: the amount of reagent.

| gene | DRSC id | z-score, replicate 1 | z-score, replicate 2 | z-score, replicate 3 | z-score, replicate 4 |
| --- | --- | --- | --- | --- | --- |
| CG30159 | DRSC04981 | 0.17 | 0.32 | – | – |
| Tsp33B | DRSC02418 | 0.36 | 0.3 | – | – |
| wech | DRSC06606 | 0.13 | -0.11 | – | – |
| cnc | DRSC14676 | 0.47 | 0.22 | – | – |
| cnc | DRSC15289 | 0.18 | 0.27 | – | – |
| cnc | DRSC15600 | -0.09 | -0.3 | – | – |
| cnc | DRSC15601 | 0.22 | -0.02 | – | – |
| CG15537 | DRSC15073 | 0.59 | 0.68 | – | – |
| Mrtf | DRSC08263 | -0.82 | -0.32 | – | – |
| Mrtf | DRSC08410 | -0.53 | -1.01 | – | – |
| Mrtf | DRSC08411 | -1.23 | -0.45 | – | – |
| l(2)k09913 | DRSC04699 | 0.11 | 0.43 | – | – |
| trpl | DRSC06728 | 0.45 | 0.34 | – | – |
| trpl | DRSC06729 | 0.05 | 0.3 | 1.24 | 1.48 |
| Ndfip | DRSC11201 | 0.33 | 0.25 | – | – |
| Rdh | DRSC08063 | -4.81 | -3.68 | – | – |
| Rdh | DRSC08434 | -0.09 | -0.13 | -1.63 | -1.07 |
| Polr1E | DRSC14506 | 0.23 | 0.17 | – | – |
| Polr1E | DRSC15358 | 0.34 | 0.26 | – | – |
| TwdlM | DRSC15810 | 0.42 | 0.85 | – | – |
| CG5131 | DRSC02817 | 0.23 | 0.25 | – | – |
| CG15771 | DRSC18077 | 0.32 | 0.34 | – | – |
| Pfdn6 | DRSC10915 | 0.03 | -0.33 | – | – |
| CG5521 | DRSC15828 | 0.24 | 0.32 | – | – |
| sordd2 + sordd1 | DRSC20136 | 0.27 | 0.66 | – | – |
| CG7011 + Prp31 | DRSC10760 | 0.2 | 0.27 | – | – |
| gkt | DRSC00821 | 0.27 | 0.23 | – | – |
| Cep164 | DRSC20163 | 0.05 | 0.18 | – | – |
| CG2076 | DRSC19832 | 0.44 | 0 | – | – |
| Sirt2 | DRSC15714 | 0.19 | 0.34 | – | – |
| Cog4 | DRSC03057 | -1.47 | -0.64 | – | – |
| Amacr | DRSC03198 | 0.35 | 0.26 | – | – |
| wde | DRSC05955 | -0.09 | 0.19 | – | – |
| CG33281 | DRSC00421 | 0.38 | 0.38 | – | – |
| fzr | DRSC18781 | 0.26 | 0.16 | – | – |
| CG32104 | DRSC10127 | -0.72 | -0.93 | – | – |
| CG32104 | DRSC10128 | 0.38 | -0.18 | – | – |
| Veneno | DRSC16537 | 0.14 | 0.31 | – | – |
| PCNA | DRSC07653 | 0.25 | 0.04 | – | – |
| CG32833 | DRSC04596 | 0.2 | 0.36 | – | – |
| CG13627 | DRSC14629 | 0.54 | 0.41 | – | – |
| mle | DRSC04921 | 0.2 | 0.17 | – | – |
| CG9452 | DRSC11075 | 0.39 | 0.14 | – | – |
| Akap200 | DRSC01864 | -0.01 | 0.17 | – | – |
| Pgant9 | DRSC05621 | 0.53 | 0.26 | – | – |
| Pgant9 | DRSC06584 | 0.3 | 0.23 | – | – |
| Pgant9 | DRSC07185 | 0.14 | 0.33 | – | – |
| Pgant9 | DRSC07186 | 0.48 | 0.47 | – | – |
| Pgant9 | DRSC07187 | 0.69 | 0.37 | – | – |
| Pgant9 | DRSC07189 | 0.64 | 0.54 | – | – |
| Pgant9 | DRSC21807 | -0.43 | 0.24 | – | – |
| Pgant9 | DRSC22076 | 0.62 | 0.55 | – | – |
| abd-A | DRSC13179 | 0.41 | 0.6 | – | – |
| abd-A | DRSC16897 | -8.54 | -4.77 | – | – |
| Unc-115b + p24-2 + Unc-115a | DRSC16502 | -0.01 | 0.19 | – | – |
| Jon99Fii + Jon99Cii + Jon99Ciii + 1 more | DRSC15298 | 0.24 | 0.45 | – | – |

Continued (9 carried over from the part before).
| gene | DRSC id | z-score, replicate 1 | z-score, replicate 2 | z-score, replicate 3 | z-score, replicate 4 |
| --- | --- | --- | --- | --- | --- |
| Pgant9 | DRSC07186 | 0.48 | 0.47 | – | – |
| Pgant9 | DRSC07187 | 0.69 | 0.37 | – | – |
| Pgant9 | DRSC07189 | 0.64 | 0.54 | – | – |
| Pgant9 | DRSC21807 | -0.43 | 0.24 | – | – |
| Pgant9 | DRSC22076 | 0.62 | 0.55 | – | – |
| abd-A | DRSC13179 | 0.41 | 0.6 | – | – |
| abd-A | DRSC16897 | -8.54 | -4.77 | – | – |
| Unc-115b + p24-2 + Unc-115a | DRSC16502 | -0.01 | 0.19 | – | – |
| Jon99Fii + Jon99Cii + Jon99Ciii + 1 more | DRSC15298 | 0.24 | 0.45 | – | – |
| cpb | DRSC00809 | -0.28 | -0.17 | – | – |
| Polr3E | DRSC11880 | 0.01 | -2.86 | – | – |
| Jon65Aiv | DRSC10644 | 0.18 | 0.4 | – | – |
| CG13984 | DRSC02316 | 0.29 | 0.19 | – | – |
| CG5934 | DRSC15922 | 0.13 | 0.12 | – | – |
| Ppcs | DRSC14127 | 0.34 | 0.37 | – | – |
| ND-B17 | DRSC01981 | -0.09 | -0.04 | – | – |
| Snx21 | DRSC00564 | 0.37 | 0.51 | – | – |
| CG17122 | DRSC10245 | 0.46 | 0.5 | – | – |
| Dhfr | DRSC16646 | -0.51 | 0.03 | – | – |
| RecQ5 | DRSC11266 | 0.29 | 0.49 | – | – |
| CG15572 | DRSC18060 | 0.44 | 0.29 | – | – |
| Glut1 | DRSC07927 | 0.5 | 0.35 | – | – |
| Glut1 | DRSC08378 | 0.43 | 0.36 | – | – |
| Glut1 | DRSC08662 | 0.36 | 0.15 | – | – |
| RpS27A | DRSC03421 | -3.93 | -3.11 | – | – |
| Vajk2 | DRSC02540 | 0.31 | 0.18 | – | – |
| por | DRSC20362 | 0.27 | 0.5 | – | – |
| slx1 | DRSC12290 | 0.32 | 0.21 | – | – |
| Toll-6 | DRSC11304 | 0.3 | -0.99 | – | – |
| CG9072 | DRSC20147 | 0.4 | 0.41 | – | – |
| CG14752 | DRSC06488 | 0.24 | 0.28 | – | – |
| GlyRS | DRSC10711 | 0.13 | -0.03 | – | – |
| ppk8 | DRSC17269 | 0.1 | 0.57 | – | – |
| CG33773 | DRSC14032 | 0.31 | 0.35 | – | – |
| CG32365 | DRSC10040 | 0.33 | 0.07 | – | – |
| CG32365 | DRSC10041 | -2.66 | -4.05 | – | – |
| CG32365 | DRSC10977 | -3.16 | -2.31 | – | – |
| CG15044 | DRSC19620 | -0.19 | -0.81 | – | – |
| CG15044 | DRSC21385 | 0.27 | -0.4 | – | – |
| UQCR-C2 | DRSC10405 | -1.23 | -0.22 | – | – |
| CG33704 | DRSC03838 | 0.06 | 0.33 | – | – |
| CG8034 | DRSC20076 | -0.09 | -0.21 | – | – |
| CG9500 | DRSC03237 | 0.28 | 0.16 | – | – |
| shps | DRSC14614 | 0.28 | 0.22 | – | – |
| RpS10a | DRSC14161 | 0.25 | 0.48 | – | – |
| Ir94c | DRSC13539 | 0.41 | 0.5 | – | – |
| CG11529 | DRSC09839 | -0.1 | 0.18 | – | – |
| CG12784 | DRSC14539 | 0.43 | 0.8 | – | – |
| DnaJ-1 | DRSC11145 | 0.52 | 0.67 | – | – |
| pnr | DRSC17027 | 0.27 | 0.3 | – | – |
| Lamtor4 | DRSC08436 | -0.46 | -0.3 | – | – |
| Raf | DRSC18821 | -0.69 | -0.82 | – | – |
| stops | DRSC15095 | 0.1 | 0.34 | – | – |
| stops | DRSC15096 | 0.09 | 0.09 | – | – |
| stops | DRSC15097 | 0.25 | 0.06 | – | – |
| Rcc1 | DRSC09684 | -0.32 | -0.71 | – | – |
| chp | DRSC16925 | 0.08 | 0.19 | – | – |
